Measurements as given in the supplement of paper PMC9254222.
In all, about 1,100 compounds were measured (“Renilla luciferase signal (cell health) relative to plate median”: median about 0.97, highest 2% from about 1.6 on). This is a selection; strong and weak results do not stand in their true shares.

Test system: HEK293T (UBE3A T485A transfected, BAR Wnt reporter)
Experiment: Renilla luciferase signal (cell health) relative to plate median (fold (linear ratio)); higher = higher Renilla signal
Details: 24 h
Outline: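 HEK293T cells were seeded at 4500 cells/well in white 384-well plates and grown in DMEM with 10% FBS at 37°C and 5% CO2. The cells were transfected using Fugene 6 with a BAR firefly luciferase Wnt reporter, TK-Renilla and an expression plasmid, and four hours later robots added the chemicals at 0.01–100 uM for 24 h before a Dual-Glo luciferase readout. Wnt activity was taken as the firefly/Renilla ratio and cell health as raw Renilla, each median-centred per plate. Values are averages of four biological replicates.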

| Structure (SMILES) | Renilla luciferase signal (concentration: 0.01 uM) | Renilla luciferase signal (concentration: 0.1 uM) | Renilla luciferase signal (concentration: 1 uM) | Renilla luciferase signal (concentration: 10 uM) | Renilla luciferase signal (concentration: 100 uM) |
| --- | --- | --- | --- | --- | --- |
| C#CCC1=C(C)C(OC(=O)C2C(C=C(C)C)C2(C)C)CC1=O (stereo not given) [Prallethrin] | 1.26 | 1.03 | 1.08 | 0.99 | 0.132 |
| CCCCCCCCCc1ccc(O)cc1 [4-Nonylphenol, branched] | – | 1 | 0.945 | 1.06 | 0.973 |
| Clc1cccc(C(Cl)(Cl)Cl)n1 [Nitrapyrin] | 0.668 | 0.936 | 1.01 | 0.981 | 1.23 |
| CNc1cnn(-c2cccc(C(F)(F)F)c2)c(=O)c1Cl [Norflurazon] | 1.06 | 0.78 | 0.77 | 0.879 | 1.28 |
| CCC(=O)C(CC(C)N(C)C)(c1ccccc1)c1ccccc1.Cl (stereo not given) [Methadone hydrochloride] | – | 1.01 | 1.01 | 1.07 | 0.142 |
| CC(C)=CC1C(C(=O)OCN2C(=O)C3=C(CCCC3)C2=O)C1(C)C (stereo not given) [Tetramethrin] | 0.966 | 0.959 | 0.83 | 1.01 | 1.08 |
| CC(=O)N=C1C=CC(=O)C=C1 | 1.05 | 0.982 | 0.94 | 1.19 | 0.742 |
| CS(=O)(=O)c1ccc(C(=O)C2C(=O)CCCC2=O)c([N+](=O)[O-])c1 [Mesotrione] | 0.834 | 0.808 | 0.956 | 1.03 | 1.39 |
| C=CCOC(=O)C(C)(C)OC(=O)c1cc(-n2c(=O)cc(C(F)(F)F)n(C)c2=O)ccc1Cl [Butafenacil] | 0.995 | 1.27 | 1.1 | 0.865 | 1.16 |
| CN(C)NC(=O)CCC(=O)O [Daminozide] | 0.728 | 0.735 | 0.928 | 0.807 | 1.39 |
| NS(=O)(=O)C(F)(F)C(F)(F)C(F)(F)C(F)(F)C(F)(F)C(F)(F)C(F)(F)C(F)(F)F | – | 0.448 | 0.567 | 0.447 | 0.0943 |
| O=P(OCCCl)(OCCCl)OCCCl [Tris(2-chloroethyl) phosphate] | – | 1.28 | 1.16 | 0.953 | 1.26 |
| CCSC(=O)N(CC)C1CCCCC1 [Cycloate] | 0.797 | 0.996 | 0.924 | 1.01 | 1.15 |
| CSc1nc(NC(C)C)nc(NC(C)C)n1 [Prometryn] | 1.14 | 1.03 | 0.973 | 1.01 | 0.989 |
| O.[Br-].[Br-].c1cc[n+]2c(c1)-c1cccc[n+]1CC2 [Diquat dibromide monohydrate] | 0.901 | 1.01 | 1.01 | 1.01 | 1.24 |
| Oc1nc(O)nc(O)n1 [Cyanuric acid] | – | 0.931 | 0.924 | 1.05 | 0.976 |
| OCC1CO1 (stereo not given) [Glycidol] | – | 0.963 | 0.89 | 1.04 | 1.1 |
| O=c1n(Cl)c(=O)n(Cl)c(=O)n1Cl [Symclosene] | – | – | – | – | 1.88 |
| O=C1CCCO1 [4-Butyrolactone] | – | 0.916 | 0.91 | 0.928 | 1.07 |
| Cc1cc(N=Nc2ccccc2C)ccc1N [2-Amino-5-azotoluene] | – | 0.844 | 0.724 | 0.656 | 0.424 |
| CCCC(=NOCC)C1=C(O)CC(CC(C)SCC)CC1=O (stereo not given) [Sethoxydim] | 1.01 | 0.945 | 0.86 | 0.907 | 1.19 |
| c1ccc(-c2ccccc2)cc1 [Biphenyl] | – | 0.779 | 0.922 | 0.845 | 0.979 |

| Structure (SMILES) | Renilla luciferase signal (concentration: 0.01 uM) | Renilla luciferase signal (concentration: 0.1 uM) | Renilla luciferase signal (concentration: 1 uM) | Renilla luciferase signal (concentration: 10 uM) | Renilla luciferase signal (concentration: 100 uM) |
| --- | --- | --- | --- | --- | --- |
| Nc1cc2c3c(c1)C(c1ccccc1)=N[C@@H](NC(=O)c1cccnc1)C(=O)N3CC2 | – | 0.898 | 0.862 | 0.898 | 0.793 |
| C[C@]12C=CC3=C4CCC(=O)C=C4CC[C@H]3[C@@H]1CC[C@@H]2O [17beta-Trenbolone] | – | 1.04 | 1.14 | 1.26 | 0.961 |
| OCCCBr [3-Bromo-1-propanol] | – | 0.865 | 0.896 | 0.988 | 0.976 |
| CS(=O)CCCCN=C=S (stereo not given) [Sulforaphane] | 0.847 | 0.902 | 0.946 | 0.812 | 0.00245 |
| C=CCc1ccc2c(c1)OCO2 [Safrole] | – | 0.871 | 0.86 | 0.978 | 1.19 |
| CC(C)(C)C(O)/C(=C\c1ccc(Cl)cc1Cl)n1cncn1 (stereo not given) [Diniconazole] | 1.01 | 1.08 | 0.922 | 0.952 | 0.0497 |
| N#Cc1ccc(N(CC(N)=O)CC(F)(F)F)cc1C(F)(F)F | – | 1.27 | 1.17 | 1.34 | 1.28 |
| CN(C)C(=O)Nc1cccc(C(F)(F)F)c1 [Fluometuron] | – | – | – | – | 1.74 |
| CCN(CC)CCO [N,N-Diethylethanolamine] | – | 1.01 | 1.07 | 1.09 | 1.02 |
| CCC[CH2][Sn]([Cl])([CH2]CCC)[CH2]CCC [Tributyltin chloride] | – | 0.598 | 0.574 | 0.235 | 0.0217 |
| CCOP(=S)(OCC)Oc1nc(Cl)n(C(C)C)n1 [Isazofos] | 1.12 | 1.06 | 0.963 | 1.04 | 1.29 |
| CCOc1ccc(C(C)(C)COCc2cccc(Oc3ccccc3)c2)cc1 [Etofenprox] | – | 1.01 | 1.12 | 0.95 | 1.14 |
| CCCCC(O)(Cn1cncn1)c1ccc(Cl)cc1Cl (stereo not given) [Hexaconazole] | 1.19 | 1.25 | 1 | 1.1 | 0.0939 |
| ClC1=C(Cl)C2(Cl)C3C(Cl)C(Cl)CC3C1(Cl)C2(Cl)Cl (stereo not given) [Chlordane] | – | 0.974 | 1.06 | 1.08 | 1.14 |
| COP(=S)(OC)Oc1nc(Cl)c(Cl)cc1Cl [Chlorpyrifos-methyl] | 1.5 | 1.18 | 1.01 | 1.04 | 0.838 |
| Clc1cccc(Cl)c1 [1,3-Dichlorobenzene] | – | 0.976 | 1.06 | 1.08 | 1.26 |
| CC1C(c2ccc(Cl)cc2)SC(=O)N1C(=O)NC1CCCCC1 (stereo not given) [Hexythiazox] | 0.957 | 0.999 | 0.929 | 0.977 | 0.244 |
| O=S(=O)([O-])C(F)(F)C(F)(F)C(F)(F)C(F)(F)C(F)(F)C(F)(F)F.[K+] | – | 1.04 | 0.983 | 1.1 | 0.867 |
| CCCN(CCOc1c(Cl)cc(Cl)cc1Cl)C(=O)n1ccnc1 [Prochloraz] | 0.793 | 0.867 | 1.02 | 0.796 | 0.267 |
| CCCCN(CCCC)N=O [N-Nitrosodibutylamine] | – | 0.861 | 0.896 | 0.975 | 1.2 |
| O=C(NC(=O)c1cc(F)c(F)cc1Cl)Nc1cc(F)ccc1N1CCC(C(=O)O)CC1 | – | 0.8 | 0.813 | 0.797 | 0.641 |
| CCCCSP(=O)(SCCCC)SCCCC [Tribufos] | 1.14 | 0.609 | 0.976 | 0.82 | 0.728 |

| Structure (SMILES) | Renilla luciferase signal (concentration: 0.01 uM) | Renilla luciferase signal (concentration: 0.1 uM) | Renilla luciferase signal (concentration: 1 uM) | Renilla luciferase signal (concentration: 10 uM) | Renilla luciferase signal (concentration: 100 uM) |
| --- | --- | --- | --- | --- | --- |
| [OH][Sn]([c]1ccccc1)([c]1ccccc1)[c]1ccccc1 [Triphenyltin hydroxide] | 0.857 | 0.622 | 0.135 | 0.0103 | 0.0121 |
| Oc1c(Cl)c(Cl)c(Cl)c(Cl)c1Cl [Pentachlorophenol] | – | 0.948 | 0.938 | 1.06 | 0.0601 |
| N#CC(Br)(Br)C(N)=O [2,2-Dibromo-3-nitrilopropionamide] | – | 0.805 | 0.875 | 0.961 | 1.14 |
| CC(=O)[O][Hg][c]1ccccc1 [Phenylmercuric acetate] | – | 0.896 | 0.801 | 0.0199 | 0.0298 |
| C[Si](Cn1cncn1)(c1ccc(F)cc1)c1ccc(F)cc1 [Flusilazole] | 1.03 | 1.08 | 1.03 | 0.986 | 0.258 |
| c1cc2c3c(cccc3c1)CC2 [Acenaphthene] | – | 1.17 | 1.26 | 1.14 | 1.68 |
| Nc1ccc(Cc2ccc(N)cc2)cc1 [4,4'-Methylenedianiline] | – | 0.803 | 0.812 | 0.825 | 0.725 |
| COC(=O)Nc1nc2ccccc2[nH]1 [Carbendazim] | – | 0.998 | 1.1 | 0.565 | 0.999 |
| CCCCOCN(C(=O)CCl)c1c(CC)cccc1CC [Butachlor] | 0.877 | 0.813 | 0.902 | 0.865 | 0.895 |
| COc1cccc(NCC(F)Cn2c3ccc(Br)cc3c3cc(Br)ccc32)c1 (stereo not given) | 1.13 | 0.816 | 0.904 | 1.04 | 1.47 |
| CCOP(=O)(NC(C)C)Oc1ccc(SC)c(C)c1 (stereo not given) [Fenamiphos] | 0.877 | 1.02 | 0.963 | 1.03 | 0.489 |
| [N-]=[N+]=[N-].[Na+] [Sodium azide] | – | 1.11 | – | – | 1.29 |
| [N-]=[N+]=[N-].[Na+] [Sodium Azide] | 1.38 | – | 1.01 | 1.05 | – |
| O=C(O)c1nc(Cl)ccc1Cl [Clopyralid] | 0.962 | 0.828 | 0.985 | 1 | 1.8 |
| O=[As][O-].[Na+] [Sodium arsenite] | 0.746 | 0.622 | 0.288 | 0.0446 | 0.0136 |
| O=[N+]([O-])c1ccc(Cl)cc1 [1-Chloro-4-nitrobenzene] | – | 0.98 | 0.976 | 0.993 | 1.1 |
| CC(C)(O)c1cnn2c(-c3ccc(F)c(-c4c(F)cccc4C#N)c3)cnc2n1 | – | 1.15 | 1.22 | 0.763 | 0.628 |
| CCC(C)(c1ccc(O)cc1)c1ccc(O)cc1 [Bisphenol B] | – | 0.934 | 0.965 | 0.927 | 0.502 |
| CC(C)Oc1cc(-n2nc(C(C)(C)C)oc2=O)c(Cl)cc1Cl [Oxadiazon] | 1.12 | 1.19 | 0.972 | 1.06 | 0.412 |
| COC(=O)c1c(C(F)F)nc(C(F)(F)F)c(C2=NCCS2)c1CC(C)C [Thiazopyr] | 0.994 | 1.1 | 0.936 | 1.05 | 1.15 |
| CN(C)c1nc(=O)n(C2CCCCC2)c(=O)n1C [Hexazinone] | 0.842 | 0.839 | 0.85 | 0.916 | 1.2 |
| Cc1cc2c3c(c1)C(c1ccccc1)=N[C@@H](NC(=O)c1ccncc1)C(=O)N3CC2 | – | 1.17 | 1.13 | 1.06 | 0.194 |

An excerpt of these results, bar-delimited:
Structure (SMILES) | Renilla luciferase signal (concentration: 0.01 uM) | Renilla luciferase signal (concentration: 0.1 uM) | Renilla luciferase signal (concentration: 1 uM) | Renilla luciferase signal (concentration: 10 uM) | Renilla luciferase signal (concentration: 100 uM)
CC1C(c2ccc(Cl)cc2)SC(=O)N1C(=O)NC1CCCCC1 (stereo not given) [Hexythiazox] | 0.957 | 0.999 | 0.929 | 0.977 | 0.244
CC(=O)[O][Hg][c]1ccccc1 [Phenylmercuric acetate] | – | 0.896 | 0.801 | 0.0199 | 0.0298
C[Si](Cn1cncn1)(c1ccc(F)cc1)c1ccc(F)cc1 [Flusilazole] | 1.03 | 1.08 | 1.03 | 0.986 | 0.258
COC(=O)c1c(C(F)F)nc(C(F)(F)F)c(C2=NCCS2)c1CC(C)C [Thiazopyr] | 0.994 | 1.1 | 0.936 | 1.05 | 1.15
